# Source: publication PMC4310589
# Protein sequences, listed by entry. Tags and fused reporters are not part of them.
# UniProt P54252: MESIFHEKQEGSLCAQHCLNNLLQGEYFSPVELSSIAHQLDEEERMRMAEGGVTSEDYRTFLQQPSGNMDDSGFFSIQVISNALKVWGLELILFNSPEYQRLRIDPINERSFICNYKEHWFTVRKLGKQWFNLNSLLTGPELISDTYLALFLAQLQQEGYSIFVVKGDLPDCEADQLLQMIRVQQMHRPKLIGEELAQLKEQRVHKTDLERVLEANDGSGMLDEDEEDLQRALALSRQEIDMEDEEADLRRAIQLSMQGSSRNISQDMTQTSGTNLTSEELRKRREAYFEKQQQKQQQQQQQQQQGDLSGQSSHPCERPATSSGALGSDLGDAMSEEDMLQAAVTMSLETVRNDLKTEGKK
# No constants are given. Whether binding was seen depends on the method and setting. Binding seen in cells or lysates may run through a third protein. Here binding means that the protein was enriched with, or labelled near, the bait; the list need not be complete.
# Biological target: polynucleotide kinase 3'-phosphatase (PNKP), endogenous (human (endogenous in AGS, HEK-293, SH-SY5Y)) (UniProt Q96T60)
# Experiment: affinity purification with mass spectrometry; large-scale IP from AGS nuclear extract (100 mg, benzonase treated) with anti-PNKP antibody-conjugated agarose beads, mouse IgG as control; washed with TBS (200 mM NaCl, 1 mM EDTA, 1% Triton X-100, 10% glycerol); stepwise elution with 300, 400 and 500 mM NaCl; 2D gel and MALDI-TOF-TOF MS
substance,measurement,value
"Ataxin-3 (ATXN3), endogenous (from UniProt P54252 1-361)",binding,binds
